PubChem BioAssay AID1224830 | NIAID – 2016
Assay: 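Genes whose knock-down alters the TNF-alpha reporter response to LPS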 (primary screen). Cell system: human THP-1 monocytic leukaemia cells, TNF dual-luciferase reporter clone, PMA-differentiated to macrophage-like cells. Knock-down reagent: siRNA pool against human genes, 50 nM. Duration: LPS for 4 h, given about 3 days after siRNA transfection. Conditions: bacterial LPS (TLR4 ligand), 10 ng/ml. Measurement: 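Ratio of firefly to renilla light, scaled to the plate median and expressed as a robust z-score per replicate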. Reading the numbers: TNF reporter robust z-score: higher = stronger TNF reporter response to LPS. Rule for the call: 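a well is active when its z-score exceeds 2.8 or falls below -1.5; control wells carry no call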.
This is one part, drawn at random, of about 18,000 reagents tested. Of all reagents, about 2,900 (16%) were called active. 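Calls are made per well; low scores hint the gene aids the LPS response, high scores that it dampens it.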 Repeated entries: four replicate wells of each siRNA pool. No sequences are given here.

| Gene | TNF reporter robust z-score | outcome |
| --- | --- | --- |
| PPP1R42 (protein phosphatase 1 regulatory subunit 42) | 0.29 | inactive |
| PPP1R42 (protein phosphatase 1 regulatory subunit 42) | -0.19 | inactive |
| PPP1R42 (protein phosphatase 1 regulatory subunit 42) | 0.55 | inactive |
| PPP1R42 (protein phosphatase 1 regulatory subunit 42) | 1.23 | inactive |
| HEATR3 (HEAT repeat containing 3) | 0.62 | inactive |
| HEATR3 (HEAT repeat containing 3) | 0.18 | inactive |
| HEATR3 (HEAT repeat containing 3) | -0.14 | inactive |
| HEATR3 (HEAT repeat containing 3) | -0.16 | inactive |
| MCEE (methylmalonyl-CoA epimerase) | -1.38 | inactive |
| MCEE (methylmalonyl-CoA epimerase) | -0.61 | inactive |
| MCEE (methylmalonyl-CoA epimerase) | -0.55 | inactive |
| MCEE (methylmalonyl-CoA epimerase) | -0.24 | inactive |
| LIMS2 (LIM zinc finger domain containing 2) | 0.24 | inactive |
| LIMS2 (LIM zinc finger domain containing 2) | 0.58 | inactive |
| LIMS2 (LIM zinc finger domain containing 2) | -1.12 | inactive |
| LIMS2 (LIM zinc finger domain containing 2) | -0.83 | inactive |
| ST3GAL4 (ST3 beta-galactoside alpha-2,3-sialyltransferase 4) | 0.09 | inactive |
| ST3GAL4 (ST3 beta-galactoside alpha-2,3-sialyltransferase 4) | -0.1 | inactive |
| ST3GAL4 (ST3 beta-galactoside alpha-2,3-sialyltransferase 4) | -0.55 | inactive |
| ST3GAL4 (ST3 beta-galactoside alpha-2,3-sialyltransferase 4) | -0.21 | inactive |
| POLB (DNA polymerase beta) | -1.03 | inactive |
| POLB (DNA polymerase beta) | -0.64 | inactive |
| POLB (DNA polymerase beta) | -0.71 | inactive |
| ALKBH5 (alkB homolog 5, RNA demethylase) | 1.12 | inactive |
| ALKBH5 (alkB homolog 5, RNA demethylase) | 0.44 | inactive |
| ALKBH5 (alkB homolog 5, RNA demethylase) | 0.51 | inactive |
| ALKBH5 (alkB homolog 5, RNA demethylase) | 2.34 | inactive |
| SLC36A2 | 0.76 | inactive |
| SLC36A2 | 1.07 | inactive |
| SLC36A2 | 1.41 | inactive |
| SLC36A2 | 1.15 | inactive |
| SMAD6 (SMAD family member 6) | -0.9 | inactive |
| SMAD6 (SMAD family member 6) | -0.74 | inactive |
| SMAD6 (SMAD family member 6) | -0.75 | inactive |
| SMAD6 (SMAD family member 6) | -1.04 | inactive |
| SLC3A2 | -1.33 | inactive |
| SLC3A2 | -1.22 | inactive |
| SLC3A2 | -0.74 | inactive |
| SLC3A2 | -0.54 | inactive |

12 entries from above, ordered by “TNF reporter robust z-score”, low to high.
| Gene | TNF reporter robust z-score | outcome |
| --- | --- | --- |
| POLB (DNA polymerase beta) | -1.03 | inactive |
| SMAD6 (SMAD family member 6) | -0.9 | inactive |
| POLB (DNA polymerase beta) | -0.71 | inactive |
| POLB (DNA polymerase beta) | -0.64 | inactive |
| ALKBH5 (alkB homolog 5, RNA demethylase) | 0.44 | inactive |
| ALKBH5 (alkB homolog 5, RNA demethylase) | 0.51 | inactive |
| SLC36A2 | 0.76 | inactive |
| SLC36A2 | 1.07 | inactive |
| ALKBH5 (alkB homolog 5, RNA demethylase) | 1.12 | inactive |
| SLC36A2 | 1.15 | inactive |
| SLC36A2 | 1.41 | inactive |
| ALKBH5 (alkB homolog 5, RNA demethylase) | 2.34 | inactive |

The listing continues:
| Gene | TNF reporter robust z-score | outcome |
| --- | --- | --- |
| CDKN2A (cyclin dependent kinase inhibitor 2A) | -0.42 | inactive |
| CDKN2A (cyclin dependent kinase inhibitor 2A) | -0.84 | inactive |
| CDKN2A (cyclin dependent kinase inhibitor 2A) | -0.54 | inactive |
| CDKN2A (cyclin dependent kinase inhibitor 2A) | -0.8 | inactive |
| AMOTL1 (angiomotin like 1) | -0.74 | inactive |
| AMOTL1 (angiomotin like 1) | -0.4 | inactive |
| AMOTL1 (angiomotin like 1) | -0.41 | inactive |
| AMOTL1 (angiomotin like 1) | -0.36 | inactive |
| MYH3 (myosin heavy chain 3) | 0.91 | inactive |
| MYH3 (myosin heavy chain 3) | 1.02 | inactive |
| MYH3 (myosin heavy chain 3) | 1.1 | inactive |
| MYH3 (myosin heavy chain 3) | 1.45 | inactive |
| DPY19L2 (dpy-19 like 2) | -0.08 | inactive |
| DPY19L2 (dpy-19 like 2) | 0.34 | inactive |
| DPY19L2 (dpy-19 like 2) | -0.1 | inactive |
| DPY19L2 (dpy-19 like 2) | -1.21 | inactive |
| EME1 (essential meiotic structure-specific endonuclease 1) | 1.84 | inactive |
| EME1 (essential meiotic structure-specific endonuclease 1) | 1.47 | inactive |
| EME1 (essential meiotic structure-specific endonuclease 1) | 0.51 | inactive |
| EME1 (essential meiotic structure-specific endonuclease 1) | 0.41 | inactive |
| ZZZ3 (zinc finger ZZ-type containing 3) | 0.28 | inactive |
| ZZZ3 (zinc finger ZZ-type containing 3) | -0.01 | inactive |
| ZZZ3 (zinc finger ZZ-type containing 3) | -0.09 | inactive |
| ZZZ3 (zinc finger ZZ-type containing 3) | 0.23 | inactive |
| GPR84 (G protein-coupled receptor 84) | -0.63 | inactive |
| GPR84 (G protein-coupled receptor 84) | -0.52 | inactive |
| GPR84 (G protein-coupled receptor 84) | -0.55 | inactive |
| GPR84 (G protein-coupled receptor 84) | 0.64 | inactive |
| SLC1A1 | 1.28 | inactive |
| SLC1A1 | 1.8 | inactive |
| SLC1A1 | 1.03 | inactive |
| SLC1A1 | 1.98 | inactive |
| SKA2 (spindle and kinetochore associated complex subunit 2) | 0.82 | inactive |
| SKA2 (spindle and kinetochore associated complex subunit 2) | 1.32 | inactive |
| SKA2 (spindle and kinetochore associated complex subunit 2) | 1.41 | inactive |
| SKA2 (spindle and kinetochore associated complex subunit 2) | 1.11 | inactive |
| GCDH (glutaryl-CoA dehydrogenase) | -0.17 | inactive |
| GCDH (glutaryl-CoA dehydrogenase) | 0.27 | inactive |
| GCDH (glutaryl-CoA dehydrogenase) | -0.18 | inactive |
| GCDH (glutaryl-CoA dehydrogenase) | 2.07 | inactive |
| LRRC32 (leucine rich repeat containing 32) | 1.18 | inactive |
| LRRC32 (leucine rich repeat containing 32) | 2.13 | inactive |
| LRRC32 (leucine rich repeat containing 32) | -0.73 | inactive |
| LRRC32 (leucine rich repeat containing 32) | -0.21 | inactive |
| RTP3 (receptor transporter protein 3) | -0.1 | inactive |
| RTP3 (receptor transporter protein 3) | 0.5 | inactive |
| RTP3 (receptor transporter protein 3) | -0.08 | inactive |
| RTP3 (receptor transporter protein 3) | 0.3 | inactive |
| ZDHHC2 (zDHHC palmitoyltransferase 2) | 2.66 | inactive |
| ZDHHC2 (zDHHC palmitoyltransferase 2) | 1.09 | inactive |
| ZDHHC2 (zDHHC palmitoyltransferase 2) | 1.34 | inactive |
| ZDHHC2 (zDHHC palmitoyltransferase 2) | 1.76 | inactive |
| F3 (coagulation factor III, tissue factor) | 0.4 | inactive |
| F3 (coagulation factor III, tissue factor) | 0.37 | inactive |
| F3 (coagulation factor III, tissue factor) | -0.36 | inactive |
| F3 (coagulation factor III, tissue factor) | -0.32 | inactive |
| NSUN5P2 (NSUN5 pseudogene 2) | -0.08 | inactive |
| NSUN5P2 (NSUN5 pseudogene 2) | 1.39 | inactive |
| NSUN5P2 (NSUN5 pseudogene 2) | 0.17 | inactive |
| NSUN5P2 (NSUN5 pseudogene 2) | 0.18 | inactive |
| MLLT1 (MLLT1 super elongation complex subunit) | -0.74 | inactive |
| MLLT1 (MLLT1 super elongation complex subunit) | -0.29 | inactive |
| MLLT1 (MLLT1 super elongation complex subunit) | -1.41 | inactive |
| MLLT1 (MLLT1 super elongation complex subunit) | -0.49 | inactive |
| NDUFV3 (NADH:ubiquinone oxidoreductase subunit V3) | 1.06 | inactive |
| NDUFV3 (NADH:ubiquinone oxidoreductase subunit V3) | 1.19 | inactive |
| NDUFV3 (NADH:ubiquinone oxidoreductase subunit V3) | 0.86 | inactive |
| NDUFV3 (NADH:ubiquinone oxidoreductase subunit V3) | 0.87 | inactive |
| C11orf24 (chromosome 11 open reading frame 24) | -0.37 | inactive |
| C11orf24 (chromosome 11 open reading frame 24) | 0.3 | inactive |
| C11orf24 (chromosome 11 open reading frame 24) | -0.59 | inactive |
| C11orf24 (chromosome 11 open reading frame 24) | 0.32 | inactive |
